# From patent US8536336B2, “Prodrug compounds useful as cannabinoid ligands” (AbbVie Inc., priority 2009, dated 2013)
# Some of these results come from one statement about several compounds together.
# Assay: In vivo regeneration of the parent compound after oral dosing of prodrug (plasma, HPLC-MS/MS)
# Set-up: species or system Sprague-Dawley rats
# Details: rat, oral aqueous formulation by gavage, blood samples for 24 hours
# Protocol: Male Sprague-Dawley rats, weighing 250-400 g, were obtained from Charles Rivers Laboratories. For the initial screening, each prodrug was evaluated in one group of three rats. All rats received an oral aqueous formulation (suspension or solution), administered by gavage. Sequential blood samples were obtained from a tail vein of each animal for 24 hours after dosing. Plasma was separated by centrifugation and stored frozen until analysis. Compounds were selectively removed from the plasma using protein precipitation followed by reverse phase HPLC with MS/MS detection for quantitation. Attempts were made to measure both the prodrug and the parent compounds in each sample.
SMILES,Parent (Example 18) detected in plasma after dosing the prodrug,Prodrug detected in plasma after dosing the prodrug
"CCCCn1/c(=N/C(=O)c2cc(C(F)(F)F)ccc2OC[C@H](C)OC(=O)OCCN(C)C)sc2ccncc21 [Example 17, (1S)-2-[2-({[(2Z)-3-butyl[1,3]thiazolo[4,5-c]pyridin-2(3H)-ylidene]amino}carbonyl)-4-(trifluoromethyl)phenoxy]-1-methylethyl 2-(dimethylamino)ethyl carbonate]",Measurable levels,but not prodrug
"CCCCn1/c(=N/C(=O)c2cc(C(F)(F)F)ccc2OC[C@H](C)O)sc2cc[n+](COC(=O)NCCCOC)cc21.[Cl-] [Example 10, (2Z)-3-butyl-2-{[2-{[(2S)-2-hydroxypropyl]oxy}-5-(trifluoromethyl)benzoyl]imino}-5-[({[(3-methoxypropyl)amino]carbonyl}oxy)methyl]-2,3-dihydro[1,3]thiazolo[4,5-c]pyridin-5-ium chloride]",Measurable levels,but not prodrug
"CCCCn1/c(=N/C(=O)c2cc(C(F)(F)F)ccc2OC[C@H](C)OC(=O)CNC)sc2ccncc21 [Example 11, (1S)-2-[2-({[(2Z)-3-butyl[1,3]thiazolo[4,5-c]pyridin-2(3H)-ylidene]amino}carbonyl)-4-(trifluoromethyl)phenoxy]-1-methylethyl N-methylglycinate]",Measurable levels,but not prodrug
"CCCCn1/c(=N/C(=O)c2cc(C(F)(F)F)ccc2OC[C@H](C)OC(=O)C(C)(C)N)sc2ccncc21 [Example 2, (1S)-2-[2-({[(2Z)-3-butyl[1,3]thiazolo[4,5-c]pyridin-2(3H)-ylidene]amino}carbonyl)-4-(trifluoromethyl)phenoxy]-1-methylethyl 2-methylalaninate]",Measurable levels,but not prodrug
"CCCCn1/c(=N/C(=O)c2cc(C(F)(F)F)ccc2OC[C@H](C)O)sc2cc[n+](COC(=O)N(C)C)cc21.[Cl-] [Example 8, (2Z)-3-butyl-5-({[(dimethylamino)carbonyl]oxy}methyl)-2-{[2-{[(2S)-2-hydroxypropyl]oxy}-5-(trifluoromethyl)benzoyl]imino}-2,3-dihydro[1,3]thiazolo[4,5-c]pyridin-5-ium chloride]",Measurable levels,but not prodrug
"CCCCn1/c(=N/C(=O)c2cc(C(F)(F)F)ccc2OC[C@H](C)O)sc2cc[n+](COC(=O)N3CCC[C@H]3C(=O)OC)cc21.[Cl-] [Example 7, (2Z)-3-butyl-2-{[2-{[(2S)-2-hydroxypropyl]oxy}-5-(trifluoromethyl)benzoyl]imino}-5-[({[(2S)-2-(methoxycarbonyl)pyrrolidin-1-yl]carbonyl}oxy)methyl]-2,3-dihydro[1,3]thiazolo[4,5-c]pyridin-5-ium chloride]",Measurable levels,but not prodrug
"CCCCn1/c(=N/C(=O)c2cc(C(F)(F)F)ccc2OC[C@H](C)O)sc2cc[n+](COC(=O)c3ccccc3)cc21.[Cl-] [Example 5, (2Z)-5-[(benzoyloxy)methyl]-3-butyl-2-{[2-{[(2S)-2-hydroxypropyl]oxy}-5-(trifluoromethyl)benzoyl]imino}-2,3-dihydro[1,3]thiazolo[4,5-c]pyridin-5-ium chloride]",Measurable levels,but not prodrug
"CCCCn1/c(=N/C(=O)c2cc(C(F)(F)F)ccc2OC[C@H](C)O)sc2cc[n+](COC(=O)C(C)(C)C)cc21.[Cl-] [Example 4, (2Z)-3-butyl-5-{[(2,2-dimethylpropanoyl)oxy]methyl}-2-{[2-{[(2S)-2-hydroxypropyl]oxy}-5-(trifluoromethyl)benzoyl]imino}-2,3-dihydro[1,3]thiazolo[4,5-c]pyridin-5-ium chloride]",Measurable levels,but not prodrug
"CCCCn1/c(=N/C(=O)c2cc(C(F)(F)F)ccc2OC[C@H](C)OC(=O)CN)sc2ccncc21 [Example 3, (1S)-2-[2-({[(2Z)-3-butyl[1,3]thiazolo[4,5-c]pyridin-2(3H)-ylidene]amino}carbonyl)-4-(trifluoromethyl)phenoxy]-1-methylethyl glycinate]",Measurable levels,but not prodrug
"CCCCn1/c(=N/C(=O)c2cc(C(F)(F)F)ccc2OC[C@H](C)OC(=O)CCC(=O)O)sc2ccncc21 [Example 14, 4-({(1S)-2-[2-({[(2Z)-3-butyl[1,3]thiazolo[4,5-c]pyridin-2(3H)-ylidene]amino}carbonyl)-4-(trifluoromethyl)phenoxy]-1-methylethyl}oxy)-4-oxobutanoic acid]",Measurable levels,but not prodrug
"CCCCn1/c(=N/C(=O)c2cc(C(F)(F)F)ccc2OC[C@H](C)O)sc2cc[n+](COC(C)=O)cc21.[Br-] [Example 1, (2Z)-5-[(acetyloxy)methyl]-3-butyl-2-{[2-{[(2S)-2-hydroxypropyl]oxy}-5-(trifluoromethyl)benzoyl]imino}-2,3-dihydro[1,3]thiazolo[4,5-c]pyridin-5-ium bromide]",Measurable levels,but not prodrug
"CCCCn1/c(=N/C(=O)c2cc(C(F)(F)F)ccc2OC[C@H](C)OC(=O)[C@H](C)N)sc2ccncc21 [Example 6, (1S)-2-[2-({[(2Z)-3-butyl[1,3]thiazolo[4,5-c]pyridin-2(3H)-ylidene]amino}carbonyl)-4-(trifluoromethyl)phenoxy]-1-methylethyl L-alaninate]",Measurable levels,but not prodrug
"CCCCn1/c(=N/C(=O)c2cc(C(F)(F)F)ccc2OC[C@H](C)OP(=O)(O)O)sc2ccncc21 [Example 9, (1S)-2-[2-({[(2Z)-3-butyl[1,3]thiazolo[4,5-c]pyridin-2(3H)-ylidene]amino}carbonyl)-4-(trifluoromethyl)phenoxy]-1-methylethyl dihydrogen phosphate]",Measurable levels,but not prodrug
"CCCCn1/c(=N/C(=O)c2cc(C(F)(F)F)ccc2OC[C@H](C)O)sc2cc[n+](Cc3cc(C)c(OC(C)=O)c(C)c3)cc21.[Br-] [Example 13, (2Z)-5-[4-(acetyloxy)-3,5-dimethylbenzyl]-3-butyl-2-{[2-{[(2S)-2-hydroxypropyl]oxy}-5-(trifluoromethyl)benzoyl]imino}-2,3-dihydro[1,3]thiazolo[4,5-c]pyridin-5-ium bromide]",Measurable levels,but not prodrug
"CCCCn1/c(=N/C(=O)c2cc(C(F)(F)F)ccc2OC[C@H](C)OC(=O)[C@@H](N)CC(=O)O)sc2ccncc21 [Example 16, (3S)-4-({(1S)-2-[2-({[(2Z)-3-butyl[1,3]thiazolo[4,5-c]pyridin-2(3H)-ylidene]amino}carbonyl)-4-(trifluoromethyl)phenoxy]-1-methylethyl}oxy)-3-amino-4-oxobutanoic acid]",Measurable levels,but not prodrug
